At least one read-out could not be matched to a standard name with certainty. Numbered stars: 1 amine (or outer) side, 2 acyl side, 3 side chain; on linkers, the order of the positions; unused ones are H or OH. Square brackets hold non-standard residues; d marks the D form. Peptide text beside a SMILES is read from it. X1 = CC(C)N1CCN(c2ccc(-c3cccc(C[C@@H](C(=O)[*:2])N(C)[*:1])c3)cc2)CC1; X2 = CN1CCN(c2ccc(-c3cccc(C[C@@H](C(=O)[*:2])N(C)[*:1])c3)cc2)CC1; X3 = CN1CCN(c2ccc(-c3cccc(C[C@@H](C(=O)[*:2])N(C)[*:1])c3)cn2)CC1; X4 = CN1CCN(c2cc(-c3cccc(C[C@@H](C(=O)[*:2])N(C)[*:1])c3)ccn2)CC1; Hmp(2R,3S) = CC[C@H](C)[C@@H](O)C(=O)O; NMeVal(β-OH) = CN[C@H](C(=O)O)C(C)(C)O; NMeV = CN[C@H](C(=O)O)C(C)C
What was measured:
[1] = test system: C. neoformans MMX 0634 ATCC 90112; assay: MIC assay (CLSI microdilution); type: cell-based; conditions: RPMI plus 0.002% Tween-80
Method: (§1) Aureobasidin and test compounds (i.e., AbA derivatives of the present invention) were received from Kalexsyn, Inc. (Kalamazoo, Mich.) as powder and were stored at 4° C. until the day of assay. […] amphotericin was obtained from Sigma Aldrich and stored under like conditions. […] Ethanol (95%) was used as a solvent and diluent for all AbA compounds. Amphotericin B was tested from 0.06-64 μg/mL. Amphotericin B (Sigma Aldrich; St. Louis, Mo.; Cat No. A9528-100MG, Lot No. 120M4087) was dissolved and diluted with dimethylsulfoxide (DMSO; Sigma Aldrich; St. Louis, Mo.; Cat No. 472301 Lot No. SHBD2072V).
(§2) The solvents were added to the test agents and the stock solutions stood for approximately 1 hr at room temperature prior to use to auto sterilize. Stock solutions were prepared at 40× the desired top concentration in the test plate.
(§3) All of the test isolates were originally received from either the American Type Culture Collection (ATCC), clinical labs, or directly from Aureogen Biosciences. Organisms stored by Micromyx were cultured on agar medium appropriate to each organism. Colonies were picked by swab from the isolation plates and put into suspension in appropriate broth containing cryoprotectant. The suspensions were aliquoted into cryogenic vials and maintained at −80° C.
(§4) Prior to testing, Candida isolates were streaked from the frozen vials on Sabouraud dextrose agar. The yeast isolates were incubated for 48 hours at 35° C. before use. The fungal isolates were obtained from enumerated fungal stocks previously prepared at Micromyx and stored in phosphate buffered saline at 4° C.
(§5) Test Media. The medium employed for the MIC assay was RPMI-1640 medium from HyClone Laboratories (Logan, Utah; Lot No. AYB60287A). The medium was prepared according to Clinical and Laboratory Standards Institute (CLSI) guidelines (1, 2), and modified to include 0.002% Tween-80. Candida parapsilosis ATCC 22019 (MMX 2323) and Aspergillus fumigatus ATCC MYA-3626 (MMX 5280) were also tested without Tween-80 to provide data for the quality control of amphotericin B in accordance with CLSI (3) and to assess the effect of Tween-80 on the activity of the test agents.
(§6) Test Procedure. The MIC assay method followed the procedure described by CLSI (1, 2) and employed automated liquid handlers to conduct serial dilutions and liquid transfers. Automated liquid handlers included the Multidrop 384 (Labsystems, Helsinki, Finland), Biomek 2000 and Biomek FX (Beckman Coulter, Fullerton Calif.). The wells in columns 2-12 in standard 96-well microdilution plates (Costar 3795) were filled with 150 μl of the appropriate diluent (95% EtOH for investigational compounds, 100% DMSO for amphotericin B). These assay plates would become the ‘mother plates’ from which the assay ‘daughter plates’ would be prepared. The drugs (300 μL at 40× the desired top concentration in the test plates) were dispensed into the appropriate well in Column 1 of the mother plates. The Biomek 2000 was used to make two-fold serial dilutions through Column 11 in the “mother plate”. The wells of Column 12 contained no drug and served as the organism growth control wells.
(§7) The daughter plates were loaded with 185 μL per well on the Multidrop 384 with RPMI plus 0.002% Tween-80 or RPMI containing no Tween-80 for the testing of the two QC isolates. […]

[2] = test system: C. parapsilosis MMX 2323 ATCC 22019; assay: MIC assay (CLSI microdilution); type: cell-based, Candida parapsilosis; conditions: RPMI plus 0.002% Tween-80
Method: as §1, §2, §3, §4, §5
(§8) Test Procedure. The MIC assay method followed the procedure described by CLSI (1, 2) and employed automated liquid handlers to conduct serial dilutions and liquid transfers. Automated liquid handlers included the Multidrop 384 (Labsystems, Helsinki, Finland), Biomek 2000 and Biomek FX (Beckman Coulter, Fullerton Calif.). The wells in columns 2-12 in standard 96-well microdilution plates (Costar 3795) were filled with 150 μl of the appropriate diluent (95% EtOH for investigational compounds, 100% DMSO for amphotericin B). These assay plates would become the ‘mother plates’ from which the assay ‘daughter plates’ would be prepared. […]

[3] = test system: A. niger MMX 0624 ATCC 16888; assay: MIC/MEC assay (CLSI microdilution); type: cell-based; conditions: RPMI plus 0.002% Tween-80; 48 hr
Method: as §1, §2, §3, §4, §5, §6
(§9) The daughter plates were loaded with 185 μL per well on the Multidrop 384 with RPMI plus 0.002% Tween-80 or RPMI containing no Tween-80 for the testing of the two QC isolates. The daughter plates were prepared on the Biomek FX instrument which transferred 5 μL of drug solution from each well of a mother plate to each corresponding well of each daughter plate in a single step.
(§10) A standardized inoculum of each organism was prepared per CLSI methods (1, 2). For the Candida isolates, colonies were picked from the streak plate and a suspension was prepared in RPMI to equal a 0.5 McFarland standard. This suspension was diluted 1:100 in RPMI resulting in a final concentration of approximately 0.5-2.5×10^3 CFU/mL. […]

A. fumigatus MMX 5944 = assay: MIC/MEC assay (CLSI microdilution); type: cell-based; conditions: RPMI plus 0.002% Tween-80; 48 hr
Method: as §1, §2, §3, §4, §5, §6, §9, §10

[4] = test system: A. fumigatus MMX 6782 ATCC 13073; assay: MIC/MEC assay (CLSI microdilution); type: cell-based; conditions: RPMI plus 0.002% Tween-80; 48 hr
Method: as §1, §2, §3, §4, §5, §6, §9, §10

[5] = test system: A. fumigatus MMX 6781 ATCC MYA-4609; assay: MIC/MEC assay (CLSI microdilution); type: cell-based; conditions: RPMI plus 0.002% Tween-80; 48 hr
Method: as §1, §2, §3, §4, §5, §6, §9, §10

A. flavus MMX 5948 = assay: MIC/MEC assay (CLSI microdilution); type: cell-based; conditions: RPMI plus 0.002% Tween-80; 48 hr
Method: as §1, §2, §3, §4, §5, §6, §9, §10

[6] = test system: A. fumigatus MMX 5280 ATCC MYA-3626; assay: MIC/MEC assay (CLSI microdilution); type: cell-based, Aspergillus fumigatus; conditions: RPMI plus 0.002% Tween-80; 48 hr
Method: as §1, §2, §3, §4, §5, §8

[7] = test system: A. fumigatus from Aureogen; assay: MIC/MEC assay (CLSI microdilution); type: cell-based; conditions: RPMI plus 0.002% Tween-80; 48 hr
Method: as §1, §2, §3, §4, §5, §6, §9, §10

[8] = test system: C. albicans MMX 2000 ATCC 10231; assay: MIC assay (CLSI microdilution); type: cell-based; conditions: RPMI plus 0.002% Tween-80
Method: as §1, §2, §3, §4, §5, §6, §7

With C[C@@H]1[C@H](O)[C@@H](C)/C=C/C=C/C=C/C=C/C=C/C=C/C=C/[C@H](O[C@@H]2O[C@H](C)[C@@H](O)[C@H](N)[C@@H]2O)C[C@@H]2O[C@](O)(C[C@@H](O)C[C@@H](O)[C@H](O)CC[C@@H](O)C[C@@H](O)CC(=O)O[C@H]1C)C[C@H](O)[C@H]2C(=O)O [Amphotericin B, reference compound] the MIC ([1]; listed as Amph. B) was 0.12 µg/mL, the MIC [2] was ≤0.06 µg/mL and the MIC [3] was 0.12 µg/mL. The MIC (A. fumigatus MMX 5944) was 0.25 µg/mL, the MIC [4] was 0.12 µg/mL and the MIC [5] was 0.25 µg/mL. For the same molecule, the MIC (A. flavus MMX 5948) was 0.25 µg/mL and the MIC [6] was 0.5 µg/mL.
CC[C@H](C)[C@@H]1NC(=O)[C@@H]2CCCN2C(=O)[C@H](Cc2cccc(-c3ccnc(N4CCN(C)CC4)c3)c2)N(C)C(=O)[C@H](Cc2ccccc2)NC(=O)[C@H](C(C)C)N(C)C(=O)[C@@H]([C@@H](C)CC)OC(=O)[C@H](C(C)(C)O)N(C)C(=O)[C@H](CC(C)C)NC(=O)[C@H](C(C)C)N(C)C1=O [Compound 15] (cyclo(F[X4]PI[NMeV]L[NMeVal(β-OH)][Hmp(2R,3S)][NMeV])) gave an MIC [1] of 0.03 µg/mL, an MIC [2] of 0.015 µg/mL and an MIC [3] of 0.015 µg/mL. For the same molecule, the MIC (A. fumigatus MMX 5944) was 0.25 µg/mL, the MIC [4] was 0.25 µg/mL and the MEC [7] was 0.12 µg/mL. It also gave an MIC [5] of 0.5 µg/mL and an MIC [6] of 0.5 µg/mL.
CC[C@H](C)[C@@H]1NC(=O)[C@@H]2CCCN2C(=O)[C@H](Cc2cccc(-c3ccc(N4CCN(C)CC4)cc3)c2)N(C)C(=O)[C@H](Cc2ccccc2)NC(=O)[C@H](C(C)C)N(C)C(=O)[C@@H]([C@@H](C)CC)OC(=O)[C@H](C(C)(C)O)N(C)C(=O)[C@H](CC(C)C)NC(=O)[C@H](C(C)C)N(C)C1=O [Compound 19] (cyclo(F[X2]PI[NMeV]L[NMeVal(β-OH)][Hmp(2R,3S)][NMeV])) showed an MIC [8] of 0.008 µg/mL, an MIC [2] of 0.06 µg/mL and an MEC [7] of 0.03 µg/mL. It also gave an MEC (A. flavus MMX 5948) of 0.015 µg/mL, an MIC (A. flavus MMX 5948) of 0.03 µg/mL and an MIC [6] of 0.5 µg/mL.
With CC[C@H](C)[C@@H]1NC(=O)[C@@H]2CCCN2C(=O)[C@H](Cc2cccc(-c3ccc(N4CCN(C)CC4)nc3)c2)N(C)C(=O)[C@H](Cc2ccccc2)NC(=O)[C@H](C(C)C)N(C)C(=O)[C@@H]([C@@H](C)CC)OC(=O)[C@H](C(C)(C)O)N(C)C(=O)[C@H](CC(C)C)NC(=O)[C@H](C(C)C)N(C)C1=O [Compound 20] (cyclo(F[X3]PI[NMeV]L[NMeVal(β-OH)][Hmp(2R,3S)][NMeV])) the MIC [8] was 0.004 µg/mL, the MEC (A. fumigatus MMX 5944) was 0.03 µg/mL and the MIC (A. fumigatus MMX 5944) was 0.06 µg/mL. It also gave an MEC [7] of 0.06 µg/mL and an MEC [6] of 0.03 µg/mL.
CC[C@H](C)[C@@H]1NC(=O)[C@@H]2CCCN2C(=O)[C@H](Cc2cccc(-c3ccc(N4CCN(C(C)C)CC4)cc3)c2)N(C)C(=O)[C@H](Cc2ccccc2)NC(=O)[C@H](C(C)C)N(C)C(=O)[C@@H]([C@@H](C)CC)OC(=O)[C@H](C(C)(C)O)N(C)C(=O)[C@H](CC(C)C)NC(=O)[C@H](C(C)C)N(C)C1=O [Compound 25] (cyclo(F[X1]PI[NMeV]L[NMeVal(β-OH)][Hmp(2R,3S)][NMeV])) was tested, and the MIC [8] was 0.008 µg/mL, the MIC [2] was 0.06 µg/mL and the MEC [3] was 0.008 µg/mL. It also gave an MEC (A. flavus MMX 5948) of 0.015 µg/mL.
